Results are given in words; binding and its absence hold for the method and conditions named. Some binding calls cover weakened binding; strength is not graded here.
What was measured:
Ttll12 (mouse) [1] = target: Ttll12 (mouse) (UniProt Q3UDE2); assay: yeast two-hybrid retest
Pcbp3 (mouse) [2] = target: Pcbp3 (mouse) (UniProt P57722); assay: yeast two-hybrid retest after recloning (URA3 expression, no Cre)
Ttll12 (mouse) [3] = target: Ttll12 (mouse) (UniProt Q3UDE2); assay: as above
Tubb5 (mouse) [4] = target: Tubb5 (mouse) (UniProt P99024); assay: as above
Pcbp3 (mouse) [5] = target: Pcbp3 (mouse) (UniProt P57722); assay: yeast two-hybrid, E12.5 bait library x prey library; BI-Tag identification
Tubb5 (mouse) [6] = target: Tubb5 (mouse) (UniProt P99024); assay: as above
Pcbp3 (mouse) [7] = target: Pcbp3 (mouse) (UniProt P57722); assay: yeast two-hybrid, E12.5 bait library x prey library; individual colony PCR and sequencing
Tubb5 (mouse) [8] = target: Tubb5 (mouse) (UniProt P99024); assay: as above
Ttll12 (mouse) [9] = target: Ttll12 (mouse) (UniProt Q3UDE2); assay: yeast two-hybrid, E12.5 bait library x prey library; individual colony PCR and sequencing (superscript: times found)
Ttll12 (mouse) [10] = target: Ttll12 (mouse) (UniProt Q3UDE2); assay: yeast two-hybrid, E12.5 bait library x prey library; BI-Tag identification (superscript: times found, unique junctions)
Tln1 (mouse) [11] = target: Tln1 (mouse) (UniProt P26039); assay: yeast two-hybrid retest after recloning (URA3 expression, no Cre)
Tln1 (mouse) [12] = target: Tln1 (mouse) (UniProt P26039); assay: yeast two-hybrid, E12.5 bait library x prey library; individual colony PCR and sequencing

By UniProt entry, the sequences of proteins in these tests, tags left out. Where a name states a change or a piece, a line headed by the entry shows the natural chain unless it says otherwise.
UniProt Q3UDE2: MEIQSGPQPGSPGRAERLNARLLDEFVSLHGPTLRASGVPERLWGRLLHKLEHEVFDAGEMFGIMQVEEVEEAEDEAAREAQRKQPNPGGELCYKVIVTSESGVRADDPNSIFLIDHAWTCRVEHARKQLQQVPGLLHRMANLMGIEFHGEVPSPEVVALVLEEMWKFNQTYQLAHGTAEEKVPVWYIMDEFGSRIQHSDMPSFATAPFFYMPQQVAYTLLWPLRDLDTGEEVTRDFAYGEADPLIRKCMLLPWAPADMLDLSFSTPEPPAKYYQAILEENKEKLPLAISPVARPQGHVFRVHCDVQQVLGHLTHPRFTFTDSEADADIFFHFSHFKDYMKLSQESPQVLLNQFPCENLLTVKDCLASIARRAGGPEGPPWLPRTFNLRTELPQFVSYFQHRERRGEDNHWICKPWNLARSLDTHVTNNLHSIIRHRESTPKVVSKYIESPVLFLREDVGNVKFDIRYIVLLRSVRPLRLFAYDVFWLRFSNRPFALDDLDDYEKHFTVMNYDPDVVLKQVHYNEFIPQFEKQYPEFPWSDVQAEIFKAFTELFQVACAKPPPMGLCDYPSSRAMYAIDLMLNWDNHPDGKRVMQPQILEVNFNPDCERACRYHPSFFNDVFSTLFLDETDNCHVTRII
UniProt P57722: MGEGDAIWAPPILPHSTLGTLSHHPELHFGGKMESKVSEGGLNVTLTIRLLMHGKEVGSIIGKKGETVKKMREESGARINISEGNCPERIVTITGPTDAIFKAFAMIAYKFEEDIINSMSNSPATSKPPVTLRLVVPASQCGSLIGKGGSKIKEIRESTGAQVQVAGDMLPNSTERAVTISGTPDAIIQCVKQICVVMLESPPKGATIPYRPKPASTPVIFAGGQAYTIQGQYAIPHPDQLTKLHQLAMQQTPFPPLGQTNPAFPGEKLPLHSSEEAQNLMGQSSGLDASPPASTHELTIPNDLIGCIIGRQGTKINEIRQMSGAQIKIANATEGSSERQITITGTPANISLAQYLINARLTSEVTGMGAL
UniProt P99024: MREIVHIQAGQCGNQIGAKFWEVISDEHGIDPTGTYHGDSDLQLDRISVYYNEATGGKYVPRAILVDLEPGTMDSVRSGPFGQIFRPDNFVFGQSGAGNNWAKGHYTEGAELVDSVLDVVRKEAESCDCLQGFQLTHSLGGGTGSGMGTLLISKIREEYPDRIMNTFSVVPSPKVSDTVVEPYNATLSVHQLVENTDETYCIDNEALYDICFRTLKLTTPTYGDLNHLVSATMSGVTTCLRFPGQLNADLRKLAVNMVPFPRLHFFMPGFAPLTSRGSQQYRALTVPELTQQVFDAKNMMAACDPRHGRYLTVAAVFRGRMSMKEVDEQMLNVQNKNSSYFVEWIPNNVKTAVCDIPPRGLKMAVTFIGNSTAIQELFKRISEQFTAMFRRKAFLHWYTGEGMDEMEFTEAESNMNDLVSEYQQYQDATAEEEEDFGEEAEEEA
UniProt P26039: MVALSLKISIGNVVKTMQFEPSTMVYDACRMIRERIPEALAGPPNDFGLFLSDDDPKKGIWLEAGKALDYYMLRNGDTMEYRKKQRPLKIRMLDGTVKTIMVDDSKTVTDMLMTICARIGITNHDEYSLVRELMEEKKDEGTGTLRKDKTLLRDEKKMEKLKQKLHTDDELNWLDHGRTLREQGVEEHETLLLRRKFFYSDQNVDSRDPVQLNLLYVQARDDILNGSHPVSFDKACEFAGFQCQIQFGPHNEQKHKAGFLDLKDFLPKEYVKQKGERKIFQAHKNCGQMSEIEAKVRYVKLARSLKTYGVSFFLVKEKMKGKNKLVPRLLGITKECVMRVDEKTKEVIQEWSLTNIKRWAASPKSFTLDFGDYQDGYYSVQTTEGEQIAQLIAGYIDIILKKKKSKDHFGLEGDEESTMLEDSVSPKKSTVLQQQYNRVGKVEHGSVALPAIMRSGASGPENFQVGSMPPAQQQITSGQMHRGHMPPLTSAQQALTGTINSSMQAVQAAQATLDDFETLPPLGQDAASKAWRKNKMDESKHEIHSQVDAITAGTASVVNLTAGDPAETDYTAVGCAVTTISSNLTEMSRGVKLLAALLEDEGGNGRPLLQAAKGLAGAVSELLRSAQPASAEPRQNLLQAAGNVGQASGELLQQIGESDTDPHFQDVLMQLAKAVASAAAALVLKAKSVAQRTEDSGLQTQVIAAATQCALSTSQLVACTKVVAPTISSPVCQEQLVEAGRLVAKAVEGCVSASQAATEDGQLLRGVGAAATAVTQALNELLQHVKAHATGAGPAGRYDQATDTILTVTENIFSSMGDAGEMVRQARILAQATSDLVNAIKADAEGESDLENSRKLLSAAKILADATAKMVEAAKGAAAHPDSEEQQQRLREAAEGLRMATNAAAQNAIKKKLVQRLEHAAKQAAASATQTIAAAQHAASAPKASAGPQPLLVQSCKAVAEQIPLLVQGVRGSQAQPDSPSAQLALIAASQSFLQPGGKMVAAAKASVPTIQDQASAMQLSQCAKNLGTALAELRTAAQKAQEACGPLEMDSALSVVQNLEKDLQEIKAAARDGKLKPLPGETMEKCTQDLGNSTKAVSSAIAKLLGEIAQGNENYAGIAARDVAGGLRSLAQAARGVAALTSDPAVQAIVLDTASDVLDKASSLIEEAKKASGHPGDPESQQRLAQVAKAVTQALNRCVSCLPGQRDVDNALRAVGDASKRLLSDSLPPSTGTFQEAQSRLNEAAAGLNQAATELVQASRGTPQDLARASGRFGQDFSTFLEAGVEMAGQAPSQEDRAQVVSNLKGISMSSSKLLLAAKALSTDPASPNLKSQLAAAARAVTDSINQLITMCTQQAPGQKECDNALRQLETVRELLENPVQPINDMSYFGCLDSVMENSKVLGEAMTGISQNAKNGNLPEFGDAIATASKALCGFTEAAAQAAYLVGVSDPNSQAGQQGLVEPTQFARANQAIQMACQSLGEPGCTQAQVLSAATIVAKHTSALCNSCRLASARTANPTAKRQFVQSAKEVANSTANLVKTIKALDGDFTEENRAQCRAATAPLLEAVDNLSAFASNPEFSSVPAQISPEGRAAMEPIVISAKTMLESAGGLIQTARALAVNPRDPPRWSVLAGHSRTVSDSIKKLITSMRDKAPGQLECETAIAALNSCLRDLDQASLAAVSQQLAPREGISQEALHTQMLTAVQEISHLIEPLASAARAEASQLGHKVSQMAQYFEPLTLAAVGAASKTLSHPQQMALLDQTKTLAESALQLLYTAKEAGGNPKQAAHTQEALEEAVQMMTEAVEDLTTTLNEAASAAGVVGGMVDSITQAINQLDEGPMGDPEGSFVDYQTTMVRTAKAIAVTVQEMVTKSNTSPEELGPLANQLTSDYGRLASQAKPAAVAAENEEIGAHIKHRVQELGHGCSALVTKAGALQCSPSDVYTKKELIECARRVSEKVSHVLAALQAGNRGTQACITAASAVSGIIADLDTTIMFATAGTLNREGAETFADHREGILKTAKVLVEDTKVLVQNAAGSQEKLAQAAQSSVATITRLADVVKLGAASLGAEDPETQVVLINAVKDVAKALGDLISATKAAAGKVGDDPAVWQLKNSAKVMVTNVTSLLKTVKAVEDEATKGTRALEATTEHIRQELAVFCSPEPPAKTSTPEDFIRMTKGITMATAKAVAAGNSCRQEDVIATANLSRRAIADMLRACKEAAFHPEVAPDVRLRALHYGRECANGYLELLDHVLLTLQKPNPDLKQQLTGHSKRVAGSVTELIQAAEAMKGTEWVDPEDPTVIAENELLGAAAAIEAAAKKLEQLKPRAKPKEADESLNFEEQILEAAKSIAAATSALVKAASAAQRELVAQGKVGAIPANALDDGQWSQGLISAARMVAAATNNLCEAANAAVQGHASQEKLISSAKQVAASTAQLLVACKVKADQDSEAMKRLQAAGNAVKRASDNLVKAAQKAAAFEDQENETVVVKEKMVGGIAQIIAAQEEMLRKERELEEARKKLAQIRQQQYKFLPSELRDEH
UniProt P04386: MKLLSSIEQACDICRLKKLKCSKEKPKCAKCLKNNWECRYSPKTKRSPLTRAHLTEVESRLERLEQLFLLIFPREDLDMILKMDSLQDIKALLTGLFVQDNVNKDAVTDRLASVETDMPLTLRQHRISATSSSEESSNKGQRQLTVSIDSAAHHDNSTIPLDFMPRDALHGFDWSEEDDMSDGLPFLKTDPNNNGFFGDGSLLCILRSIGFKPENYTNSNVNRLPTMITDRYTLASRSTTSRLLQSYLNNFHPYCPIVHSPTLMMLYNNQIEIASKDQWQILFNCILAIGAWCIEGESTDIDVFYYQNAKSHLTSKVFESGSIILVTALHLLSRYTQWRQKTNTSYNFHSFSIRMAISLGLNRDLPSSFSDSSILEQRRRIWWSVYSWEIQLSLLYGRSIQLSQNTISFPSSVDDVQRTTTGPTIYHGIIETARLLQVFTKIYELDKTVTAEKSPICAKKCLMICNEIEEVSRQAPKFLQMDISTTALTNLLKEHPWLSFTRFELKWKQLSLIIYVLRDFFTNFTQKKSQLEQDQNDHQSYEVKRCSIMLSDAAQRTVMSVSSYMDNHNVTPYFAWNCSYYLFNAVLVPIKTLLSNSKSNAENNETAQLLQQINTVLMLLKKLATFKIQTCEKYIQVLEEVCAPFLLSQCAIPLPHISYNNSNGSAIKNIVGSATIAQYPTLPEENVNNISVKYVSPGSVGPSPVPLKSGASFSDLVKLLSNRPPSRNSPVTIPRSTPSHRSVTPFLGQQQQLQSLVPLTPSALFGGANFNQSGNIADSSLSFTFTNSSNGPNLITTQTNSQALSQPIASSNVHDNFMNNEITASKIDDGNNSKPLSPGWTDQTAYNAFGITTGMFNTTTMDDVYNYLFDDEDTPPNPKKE

Measured: binding

Sf1 (from UniProt P04386 1-147; Q64213 2-653)
binds: Ttll12 (mouse) [1] | Pcbp3 (mouse) [2] | Ttll12 (mouse) [3] | Tubb5 (mouse) [4] | Pcbp3 (mouse) [5] | Tubb5 (mouse) [6] | Pcbp3 (mouse) [7] | Tubb5 (mouse) [8] | Ttll12 (mouse) [9] | Ttll12 (mouse) [10]

Rai17 (from UniProt P04386 1-147; Q6P1E1 1-1072)
binds: Tln1 (mouse) [11] | Tln1 (mouse) [12]

Cugbp1 (from UniProt P04386 1-147; P28659 1-486)
binds: Pcbp3 (mouse) [2] | Pcbp3 (mouse) [7]

— US20100216649A1
